Laboratory results published in the supplement of paper PMC3334620.
Over roughly 33,000 sequences, “E-score (-0.5 to 0.5)” has its median near -0.0059; the highest 2% begin near 0.26. The list shows a part of the results.

molecular target: T1, Cin5 (UniProt P40917); assay: PBM E-score (8-mer binding enrichment) (E-score (-0.5 to 0.5)); higher = stronger / more preferred TF binding; conditions: protein concentration: 100 nM; construct: GST-full length
T1 sequence: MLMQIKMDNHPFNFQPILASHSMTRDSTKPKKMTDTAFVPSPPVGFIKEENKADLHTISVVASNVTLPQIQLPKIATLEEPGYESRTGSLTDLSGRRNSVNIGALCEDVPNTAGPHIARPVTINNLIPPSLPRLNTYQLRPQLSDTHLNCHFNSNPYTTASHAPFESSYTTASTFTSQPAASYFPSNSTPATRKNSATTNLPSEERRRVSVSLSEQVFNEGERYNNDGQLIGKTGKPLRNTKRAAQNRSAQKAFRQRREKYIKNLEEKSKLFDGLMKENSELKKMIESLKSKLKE
How it was run: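 GST-tagged yeast TFs (full-length or DNA-binding domain) were made by PURExpress in vitro transcription/translation and applied at about 100-200 nM to universal all-10-mer Agilent arrays. The arrays were made double-stranded by primer extension, on fresh or once-stripped slides. Bound protein was detected with fluorescent anti-GST, and scans were normalised with masliner. Each ungapped eight-base word, pooled with its reverse complement, received an E-score (modified Wilcoxon-Mann-Whitney statistic) from the Universal PBM Analysis Suite.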

Sequence	PBM E-score
TCCTGCCA	-0.118
AAATTGAT	0.158
ATTTGTGA	0.0702
GGACAAAC	-0.0821
ATCAATGC	0.123
AACATCCA	0.138
ATAGCCAG	-0.0709
GAAAAGGA	0.0226
AATAACAC	0.247
GACCAAGC	-0.169
CCACCAAG	-0.106
AAACCCAG	0.0437
ACATCAAC	0.208
CCAAAGTA	0.0124
AGGCTGAG	-0.0489
ACATCAAT	0.172
CAAACCAC	0.00432
GAAGTTAA	-0.0529
CGACAAGC	-0.12
CAACATCC	0.0233
CGCTGTGC	-0.0792
CCGGGAGC	-0.336
AGGGACCT	-0.191
ATGATCTG	0.115
AAATACAT	0.138

Sequence	PBM E-score
ACAACTGC	-0.0262
CCCACTTC	0.0299
ATATCCAG	-0.0155
ATCTACAT	0.255
GGGTACGA	-0.0524
ATAATCCA	0.225
ATAGGGAG	-0.23
AAACATAA	0.199
CCGGTCGA	-0.239
TAAACATA	0.162
GCACCGGC	-0.178
TACAAGTA	0.129
CGTGCCGA	-0.115
ATCCTACG	-0.0513
AGGGCGTA	-0.0973
CGGTAGGA	-0.0917
GACCCTGC	-0.212
AGGGATAA	-0.0332
GCCGCCGA	0.0845
ATTCACGA	0.0917
ATTTGTTG	0.154
ACTAGTCT	-0.0739
AATGGAGA	-0.0939
AGGCAAAG	0.0351
ATTGCAAA	0.161

Sequence	PBM E-score
ACCATTCG	-0.17
CGTAAGTC	0.0859
GGGACAAC	-0.0514
CGTTAATA	0.191
ATTAAGTA	0.254
CGGTTAGC	-0.214
CAATCAGG	-0.0583
TATGACAA	0.0745
CAAGCTTA	0.184
GACTGTCC	-0.175
GCCGGCCC	-0.133
GGGAAAAC	0.0147
GCCTTGCC	-0.204
CAGCTACA	0.0445
GACTAAGC	0.192
AATCTGAG	-0.076
CTTTAAAA	-0.00746
GAGTATAC	0.148
GTGCCCAA	-0.0898
ACGGTCTG	-0.176
CAATACGA	-0.00571
GGTAAGCA	0.318
ACGGGTTG	-0.167
ATGGGCGC	-0.0843
TCTGTTAA	0.0592

Sequence	PBM E-score
ATTAGAAC	0.256
ACATGAGA	0.0909
AAACCCCT	-0.253
AGCACGCA	-0.127
ACTACGCT	-0.0378
TGCATCCA	0.0333
TCAGGGCA	-0.0392
CTACGCCA	-0.226
CCGAAGTC	-0.0417
GCACACCC	-0.187
GATTGTAA	0.123
AAACGGAG	-0.0245
CAACTTAG	0.247
CTGTTATA	0.0812
ACGACGAG	-0.0929
AAGCTATT	0.0828
CCGGAGCG	-0.235
AACAAACA	0.183
GCCAACGA	-0.0711
AAATTTAG	0.102
CAACGGGC	-0.0196
CCTGCGTC	-0.284
GATGTTCA	-0.202
ACAAGTTG	0.0874
GACGGTCC	-0.201

Sequence	PBM E-score
ACGGTTCA	-0.261
GAGTTACC	-0.092
ACGGGCTC	-0.391
GAACCGTC	-0.0783
AGGCACAA	-0.0859
AGAGATCT	-0.171
GCGCGACA	0.0258
GCACCAAC	-0.092
CAGAGCTC	-0.295
CCCCACTA	-0.0856
CAGCATAC	-0.0173
GGGAATGA	0.277
GAGGTGCC	-0.136
ATCTATTG	0.0431
TACGACTA	0.045
GCCACTTA	0.0784
AGACGCGG	-0.0536
CCCGCAAC	0.0475
TAGATGAA	0.137
ACGCTAGT	-0.054
CGGTGGCC	-0.0338
CGGCAGGA	-0.255
GAGGCTAA	-0.00141
AAAAACTG	-0.114
CAACCTCA	-0.0493

Sequence	PBM E-score
CGGAAGAA	0.0104
GCCCTTGA	-0.253
CTACTGCC	-0.117
TACGAACA	-0.112
AAGGTGAG	-0.00458
AAGCCTCT	-0.187
AAGCTGCA	0.0791
CAAATTGA	0.109
CACGGTTC	-0.2
CCGAATTA	0.0794
AAGCACCC	-0.0437
GCGCAGTA	0.0953
CATAATCC	0.265
AGAACAGG	-0.13
TTGTTAAA	-0.127
GAATGGGA	0.0182
ATATCTTC	0.225
CTTGCCCC	-0.185
GATCGTCC	-0.15
ACTACGTC	0.00455
ACATCTGC	-0.0701
GGTGTCGA	0.022
CTGAGGAC	-0.151
ATCGAACG	0.00807
AAATATGA	0.245

Sequence	PBM E-score
ATGACGCC	-0.0636
ACCTACCT	-0.137
ACCAGATC	-0.0659
ATAATCAT	0.377
CATGACCA	0.0168
CCCGTGCG	-0.123
GGCTAGCA	-0.0387
AACTTAAT	0.211
ACATAGTA	0.15
AACATATG	0.0896
AGGGTAAA	0.0833
CCAATCAA	0.0665
CTATGCGA	0.0728
CCTTGAGA	-0.0182
CCAGTATC	-0.0585
AAGGAAAA	0.222
AAGGCGGC	-0.32
AGGGCAAT	0.0012
ACAACGCG	0.223
GAGTGTAA	-0.107
GAGCTCGC	0.0383
AGGGAACC	-0.211

As entered above:
Entry for AGGGAACC under PBM E-score: -0.211
Entry for ATGACGCC under PBM E-score: -0.0636
Entry for AGGGCAAT under PBM E-score: 0.0012
Entry for GAGTGTAA under PBM E-score: -0.107
Entry for GGCTAGCA under PBM E-score: -0.0387
